Measurements: EP1379546B1, “PEPTIDE FOR THE DIAGNOSIS AND THERAPY OF ALZHEIMER'S DISEASE” (Leibniz-Institut für Altersforschung - …, priority 2001, dated 2002)
At least one compound was matched to its structure with a doubt left. Non-standard residues stand in square brackets, D forms with d. Residues, ends and D or L forms follow the SMILES beside them. *: point of attachment. 5FAM = O=C1OC2(c3ccc(O)cc3Oc3cc(O)ccc32)c2ccc(C(=O)*)cc21

By UniProt entry, the sequences of proteins in these tests, tags left out. Residues count along the entry.
UniProt P05067, 672-713: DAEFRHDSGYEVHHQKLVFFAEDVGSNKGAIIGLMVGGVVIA

Experiments:
L-Aβ [1] = target: T1, L-Aβ (Homo sapiens, UniProt P05067); assay: Fluorescence titration of fluorescein-labelled D-peptide with L-Aβ; type: binding; set-up: purchased Jerini Biotools, Berlin; host or cells: chemical synthesis; conditions: fluorescence titration at 298 K, PBS with 1 mM sodium dodecyl sulfate, 0,8 µM D-Pep, L-Aβ dissolved in HFP; simple bimolecular reaction assumed, nonlinear curve fit; read-out: KD-Wert
L-Aβ [2] = target: T1, L-Aβ; assay: as above; type: binding; set-up: purchased Jerini Biotools, Berlin, Deutschland; host or cells: chemical synthesis; conditions: control in the fluorescence titration, 1,0 µM Fluorescein

| Structure (SMILES) | Kd (L-Aβ [1]) [µM] | Bindung an L-Aβ (L-Aβ [2]) |
| --- | --- | --- |
| CC[C@@H](C)[C@@H](NC(=O)[C@@H](Cc1c[nH]cn1)NC(=O)[C@@H](CCCNC(=N)N)NC(=O)[C@@H](Cc1ccc(O)cc1)NC(=O)[C@@H](Cc1c[nH]cn1)NC(=O)[C@@H](CO)NC(=O)[C@H](N)CCC(N)=O)C(=O)N[C@H](CO)C(=O)N1CCC[C@@H]1C(=O)N[C@H](C)C(=O)N[C@H](CCC(N)=O)C(=O)N[C@@H](C(=O)N[C@@H](CCCCNC(=O)c1ccc2c(c1)C(=O)OC21c2ccc(O)cc2Oc2cc(O)ccc21)C(=O)O)C(C)C [D-Pep] (H-[dQ][dS][dH][dY][dR][dH][dI][dS][dP][dA][dQ][dV]K(5FAM)-OH; N-terminus and C-terminus assumed) | 4 | – |
| O=C1OC2(c3ccc(O)cc3Oc3cc(O)ccc32)c2ccccc21 [Fluorescein-Isothiocyanat] | – | bindet nicht |
